Results are given in words; binding and its absence hold for the method and conditions named. For part of these data: Binding seen in cells or lysates may run through a third protein. Some entries that bind do so weakly or less than the wild type.
T1: HIRA (co-IP domain-mapping experiments) (Drosophila) (UniProt O17468)
T1 sequence: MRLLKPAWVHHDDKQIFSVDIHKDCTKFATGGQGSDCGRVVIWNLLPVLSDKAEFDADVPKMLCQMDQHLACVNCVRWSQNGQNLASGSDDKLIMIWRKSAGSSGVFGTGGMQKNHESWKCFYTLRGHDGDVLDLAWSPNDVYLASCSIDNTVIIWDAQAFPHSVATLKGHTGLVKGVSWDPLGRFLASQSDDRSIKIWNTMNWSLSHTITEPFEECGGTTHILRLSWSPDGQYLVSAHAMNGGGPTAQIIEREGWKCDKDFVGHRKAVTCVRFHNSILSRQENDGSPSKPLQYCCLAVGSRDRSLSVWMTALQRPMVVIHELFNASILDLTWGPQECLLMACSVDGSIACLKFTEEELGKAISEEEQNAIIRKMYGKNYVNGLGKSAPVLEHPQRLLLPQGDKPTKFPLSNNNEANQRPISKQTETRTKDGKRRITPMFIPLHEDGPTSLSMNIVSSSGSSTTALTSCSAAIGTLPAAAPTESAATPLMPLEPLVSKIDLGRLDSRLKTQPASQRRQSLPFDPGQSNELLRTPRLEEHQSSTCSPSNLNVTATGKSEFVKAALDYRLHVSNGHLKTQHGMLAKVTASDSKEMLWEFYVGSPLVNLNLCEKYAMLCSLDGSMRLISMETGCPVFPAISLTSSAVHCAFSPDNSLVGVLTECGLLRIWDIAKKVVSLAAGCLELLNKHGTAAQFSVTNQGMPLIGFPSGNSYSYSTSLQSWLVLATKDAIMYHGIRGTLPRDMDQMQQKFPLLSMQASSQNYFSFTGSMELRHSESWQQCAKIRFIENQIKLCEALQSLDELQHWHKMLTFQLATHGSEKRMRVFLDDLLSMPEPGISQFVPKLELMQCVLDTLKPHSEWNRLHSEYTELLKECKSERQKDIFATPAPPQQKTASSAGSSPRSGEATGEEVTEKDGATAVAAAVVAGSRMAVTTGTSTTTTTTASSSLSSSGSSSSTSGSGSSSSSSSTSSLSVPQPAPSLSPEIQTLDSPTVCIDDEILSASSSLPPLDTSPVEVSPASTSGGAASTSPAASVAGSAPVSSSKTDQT


Key:
[1] = target: T1, HIRA (co-IP domain-mapping experiments) (Drosophila); assay: co-IP; co-IP of GAF, HIRA and their deletion mutants (SI Appendix Figs. S6B-F, S8C-E); cells and tags not shown
[2] = target: GAF (co-IP domain-mapping experiments) (Drosophila) (UniProt Q08605); assay: as above
[3] = target: GAF (in vitro, semidenaturing detergent agarose gel electrophoresis) (Drosophila) (UniProt Q08605); assay: semidenaturing detergent agarose gel electrophoresis; GAF in solution, alone or in the presence of nucleosomes; detects high molecular weight oligomers (SI Appendix Fig. S7H, I)

| binding [1] | binding [2] | binding [3] | Binder |
| --- | --- | --- | --- |
| binds | binds |  | GAF (co-IP domain-mapping experiments) (protein, UniProt Q08605 1-582) MSLPMNSLYSLTWGDYGTSLVSAIQLLRCHGDLVDCTLAAGGRSFPAHKIVLCAASPFLLDLLKNTPCKHPVVMLAGVNANDLEALLEFVYRGEVSVDHAQLPSLLQAAQCLNIQGLAPQTVTKDDYTTHSIQLQHMIPQHHDQDQLIATIATAPQQTVHAQVVEDIHHQGQILQATTQTNAAGQQQTIVTTDAAKHDQAVIQAFLPARKRKPRVKKMSPTAPKISKVEGMDTIMGTPTSSHGSGSVQQVLGENGAEGQLLSSTPIIKSEGQKVETIVTMDPNNMIPVTSANAATGEITPAQGATGSSGGNTSGVLSTPKAKRAKHPPGTEKPRSRSQSEQPATCPICYAVIRQSRNLRRHLELRHFAKPGVKKEKKTTSGKKSSSGSSGSGSGALSSSGSVPQVQTVQSLHTLQGVQVKKDPDAQQQQQQQQQQQQQQQQQAMTVSGATGGQVQQQVQQVQQQVQQQQQQQQQQQQQLQHHQIIDSSGNITTATTSAQAAAAAQQQAAGQQQQLVAQSDGSESGAPLSIAQVQTLQGHQIIGNLNQVNITDFQQQQPQQQQQQQQQQQQQQQQQQQTQQTL |
|  |  | binds | GAF (in vitro, semidenaturing detergent agarose gel electrophoresis) (protein, UniProt Q08605 1-582) MSLPMNSLYSLTWGDYGTSLVSAIQLLRCHGDLVDCTLAAGGRSFPAHKIVLCAASPFLLDLLKNTPCKHPVVMLAGVNANDLEALLEFVYRGEVSVDHAQLPSLLQAAQCLNIQGLAPQTVTKDDYTTHSIQLQHMIPQHHDQDQLIATIATAPQQTVHAQVVEDIHHQGQILQATTQTNAAGQQQTIVTTDAAKHDQAVIQAFLPARKRKPRVKKMSPTAPKISKVEGMDTIMGTPTSSHGSGSVQQVLGENGAEGQLLSSTPIIKSEGQKVETIVTMDPNNMIPVTSANAATGEITPAQGATGSSGGNTSGVLSTPKAKRAKHPPGTEKPRSRSQSEQPATCPICYAVIRQSRNLRRHLELRHFAKPGVKKEKKTTSGKKSSSGSSGSGSGALSSSGSVPQVQTVQSLHTLQGVQVKKDPDAQQQQQQQQQQQQQQQQQAMTVSGATGGQVQQQVQQVQQQVQQQQQQQQQQQQQLQHHQIIDSSGNITTATTSAQAAAAAQQQAAGQQQQLVAQSDGSESGAPLSIAQVQTLQGHQIIGNLNQVNITDFQQQQPQQQQQQQQQQQQQQQQQQQTQQTL |

From PMC11588057
